The supplement of paper PMC8728848
The other results are listed elsewhere or left out.

Experiments:
Experiment in all cases: glycan array binding signal (z-score within array); higher = stronger binding
Details in all cases: glycan notation: IUPAC condensed, linker removed
[1] = target: Fuc(a1-2)[Gal(a1-3)]Gal(b1-4)GlcNAc(b1-2)Man(a1-3)[Fuc(a1-2)[Gal(a1-3)]Gal(b1-4)GlcNAc(b1-2)Man(a1-6)]Man(b1-4)GlcNAc(b1-4)[Fuc(a1-6)]GlcNAc
Summary of the method: (§1)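 The binding signal is a Z-score computed within each array and averaged over linkers. Arrays of the same protein sequence at different concentrations or buffers were also averaged together. Data originate from 3228 arrays in the Consortium for Functional Glycomics database, kept only where the protein sequence was available.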

[2] = target: Fuc(a1-2)[Gal(a1-3)]Gal(b1-4)GlcNAc(b1-3)GalNAc
Summary of the method: as §1

[3] = target: Fuc(a1-2)[Gal(a1-3)]Gal(b1-4)GlcNAc(b1-3)[Fuc(a1-2)[Gal(a1-3)]Gal(b1-4)GlcNAc(b1-6)]GalNAc
Summary of the method: as §1

[4] = target: Fuc(a1-2)[Gal(a1-3)]Gal(b1-4)GlcNAc(b1-6)GalNAc
Summary of the method: as §1

[5] = target: Fuc(a1-2)[Gal(a1-3)]Gal(b1-4)[Fuc(a1-3)]Glc
Summary of the method: as §1

[6] = target: Fuc(a1-2)[Gal(a1-3)]Gal(b1-4)[Fuc(a1-3)]GlcNAc
Summary of the method: as §1

[7] = target: Fuc(a1-2)[Gal(a1-3)]Gal(b1-4)[Fuc(a1-3)]GlcNAc(b1-3)GalNAc
Summary of the method: as §1

[8] = target: Fuc(a1-2)[Gal(a1-4)]Gal(b1-4)GlcNAc
Summary of the method: as §1

[9] = target: Fuc(a1-2)[GalNAc(a1-3)]Gal
Summary of the method: as §1

[10] = target: Fuc(a1-2)[GalNAc(a1-3)]Gal(b1-3)GalNAc(a1-3)[Fuc(a1-2)]Gal(b1-4)GlcNAc
Summary of the method: as §1

[11] = target: Fuc(a1-2)[GalNAc(a1-3)]Gal(b1-3)GalNAc(b1-3)Gal(a1-4)Gal(b1-4)Glc
Summary of the method: as §1

[12] = target: Fuc(a1-2)[GalNAc(a1-3)]Gal(b1-3)GlcNAc
Summary of the method: as §1

[13] = target: Fuc(a1-2)[GalNAc(a1-3)]Gal(b1-3)GlcNAc(b1-2)Man(a1-3)[Fuc(a1-2)[GalNAc(a1-3)]Gal(b1-3)GlcNAc(b1-2)Man(a1-6)]Man(b1-4)GlcNAc(b1-4)GlcNAc
Summary of the method: as §1

[14] = target: Fuc(a1-2)[GalNAc(a1-3)]Gal(b1-3)GlcNAc(b1-2)Man(a1-3)[Fuc(a1-2)[GalNAc(a1-3)]Gal(b1-3)GlcNAc(b1-2)Man(a1-6)]Man(b1-4)GlcNAc(b1-4)[Fuc(a1-6)]GlcNAc
Summary of the method: as §1

[15] = target: Fuc(a1-2)[GalNAc(a1-3)]Gal(b1-3)GlcNAc(b1-3)GalNAc
Summary of the method: as §1

[16] = target: Fuc(a1-2)[GalNAc(a1-3)]Gal(b1-3)GlcNAc(b1-6)GalNAc
Summary of the method: as §1

[17] = target: Fuc(a1-2)[GalNAc(a1-3)]Gal(b1-4)Glc
Summary of the method: as §1

[18] = target: Fuc(a1-2)[GalNAc(a1-3)]Gal(b1-4)GlcNAc
Summary of the method: as §1

[19] = target: Fuc(a1-2)[GalNAc(a1-3)]Gal(b1-4)GlcNAc(b1-2)Man
Summary of the method: as §1

[20] = target: Fuc(a1-2)[GalNAc(a1-3)]Gal(b1-4)GlcNAc(b1-2)Man(a1-3)[Fuc(a1-2)[GalNAc(a1-3)]Gal(b1-4)GlcNAc(b1-2)Man(a1-6)]Man(b1-4)GlcNAc(b1-4)GlcNAc
Summary of the method: as §1

[21] = target: Fuc(a1-2)[GalNAc(a1-3)]Gal(b1-4)GlcNAc(b1-2)Man(a1-3)[Fuc(a1-2)[GalNAc(a1-3)]Gal(b1-4)GlcNAc(b1-2)Man(a1-6)]Man(b1-4)GlcNAc(b1-4)[Fuc(a1-6)]GlcNAc
Summary of the method: as §1

[22] = target: Fuc(a1-2)[GalNAc(a1-3)]Gal(b1-4)GlcNAc(b1-3)Gal(b1-4)GlcNAc
Summary of the method: as §1

[23] = target: Fuc(a1-2)[GalNAc(a1-3)]Gal(b1-4)GlcNAc(b1-3)Gal(b1-4)GlcNAc(b1-3)Gal(b1-4)GlcNAc
Summary of the method: as §1

[24] = target: Fuc(a1-2)[GalNAc(a1-3)]Gal(b1-4)GlcNAc(b1-3)GalNAc
Summary of the method: as §1

[25] = target: Fuc(a1-2)[GalNAc(a1-3)]Gal(b1-4)GlcNAc(b1-3)[Fuc(a1-2)[GalNAc(a1-3)]Gal(b1-4)GlcNAc(b1-6)]GalNAc
Summary of the method: as §1

[26] = target: Fuc(a1-2)[GalNAc(a1-3)]Gal(b1-4)GlcNAc(b1-6)GalNAc
Summary of the method: as §1

[27] = target: Fuc(a1-2)[GalNAc(a1-3)]Gal(b1-4)[Fuc(a1-3)]GlcNAc
Summary of the method: as §1

[28] = target: Fuc(a1-2)[GalNAc(a1-3)]Gal(b1-4)[Fuc(a1-3)]GlcNAc(b1-3)GalNAc
Summary of the method: as §1

[29] = target: Fuc(a1-2)[GalNAc(a1-4)]Gal(b1-4)GlcNAc
Summary of the method: as §1

[30] = target: Fuc(a1-2)[GalNAc(b1-3)]Gal
Summary of the method: as §1

[31] = target: Fuc(a1-3)GlcNAc
Summary of the method: as §1

[32] = target: Fuc(a1-3)[Gal(b1-4)]Glc6S
Summary of the method: as §1

[33] = target: Fuc(a1-3)[Gal(b1-4)]GlcNAc
Summary of the method: as §1

[34] = target: Fuc(a1-3)[Gal(b1-4)]GlcNAc(b1-2)Man
Summary of the method: as §1

[35] = target: Fuc(a1-3)[Gal(b1-4)]GlcNAc(b1-2)Man(a1-3)[Fuc(a1-3)[Gal(b1-4)]GlcNAc(b1-2)Man(a1-6)]Man(b1-4)GlcNAc(b1-4)GlcNAc
Summary of the method: as §1

[36] = target: Fuc(a1-3)[Gal(b1-4)]GlcNAc(b1-2)Man(a1-3)[Fuc(a1-3)[Gal(b1-4)]GlcNAc(b1-2)Man(a1-6)]Man(b1-4)GlcNAc(b1-4)[Fuc(a1-6)]GlcNAc
Summary of the method: as §1

[37] = target: Fuc(a1-3)[Gal(b1-4)]GlcNAc(b1-3)Gal(b1-3)[Fuc(a1-4)]GlcNAc
Summary of the method: as §1

[38] = target: Fuc(a1-3)[Gal(b1-4)]GlcNAc(b1-3)Gal(b1-4)[Fuc(a1-3)]GlcNAc
Summary of the method: as §1

[39] = target: Fuc(a1-3)[Gal(b1-4)]GlcNAc(b1-3)Gal(b1-4)[Fuc(a1-3)]GlcNAc(b1-3)Gal(b1-4)[Fuc(a1-3)]GlcNAc
Summary of the method: as §1

[40] = target: Fuc(a1-3)[Gal(b1-4)]GlcNAc(b1-3)GalNAc
Summary of the method: as §1

[41] = target: Fuc(a1-3)[Gal(b1-4)]GlcNAc(b1-6)GalNAc
Summary of the method: as §1

[42] = target: Fuc(a1-3)[Gal(b1-4)]GlcNAc(b1-6)[Gal(b1-3)GlcNAc(b1-3)]Gal(b1-4)Glc
Summary of the method: as §1

[43] = target: Fuc(a1-3)[Gal(b1-4)]GlcNAc6S
Summary of the method: as §1

[44] = target: Fuc(a1-3)[Gal3S(b1-4)]Glc
Summary of the method: as §1

[45] = target: Fuc(a1-3)[Gal3S(b1-4)]GlcNAc
Summary of the method: as §1

[46] = target: Fuc(a1-3)[Gal3S(b1-4)]GlcNAc6S
Summary of the method: as §1

[47] = target: Fuc(a1-3)[GalNAc(b1-4)]GlcNAc
Summary of the method: as §1

[48] = target: Fuc(a1-3)[GalNAc(b1-4)]GlcNAc6S
Summary of the method: as §1

[49] = target: Fuc(a1-4)GlcNAc
Summary of the method: as §1

[50] = target: Fuc(b1-3)GlcNAc
Summary of the method: as §1

[51] = target: Gal(a1-2)Gal
Summary of the method: as §1

[52] = target: Gal(a1-3)Gal
Summary of the method: as §1

[53] = target: Gal(a1-3)Gal(b1-3)GlcNAc
Summary of the method: as §1

[54] = target: Gal(a1-3)Gal(b1-3)GlcNAc(b1-2)Man
Summary of the method: as §1

[55] = target: Gal(a1-3)Gal(b1-3)GlcNAc(b1-2)Man(a1-3)[Gal(a1-3)Gal(b1-3)GlcNAc(b1-2)Man(a1-6)]Man(b1-4)GlcNAc(b1-4)GlcNAc
Summary of the method: as §1

[56] = target: Gal(a1-3)Gal(b1-3)GlcNAc(b1-3)GalNAc
Summary of the method: as §1

[57] = target: Gal(a1-3)Gal(b1-3)GlcNAc(b1-6)GalNAc
Summary of the method: as §1

[58] = target: Gal(a1-3)Gal(b1-3)[Fuc(a1-4)]GlcNAc(b1-2)Man(a1-3)[Gal(a1-3)Gal(b1-3)[Fuc(a1-4)]GlcNAc(b1-2)Man(a1-6)]Man(b1-4)GlcNAc(b1-4)GlcNAc
Summary of the method: as §1

[59] = target: Gal(a1-3)Gal(b1-4)Glc
Summary of the method: as §1

[60] = target: Gal(a1-3)Gal(b1-4)GlcNAc
Summary of the method: as §1

B1: Pwp1 (Candida glabrata) (protein)
chain: MGSSHHHHHHSSGLVPRGSHMASANPISITNVCQFPDNWARTAGFQATTVRLGLTIASNTYKELLNYPGLFNFATQKATVTQPNFSISGFPFFTGLYGLTVWPINLLVELQGYFVPPESGNYTFTLQGSDDAAILFFANPSTFACGSQNDWPQPREADITVTDTLVPSRTLYLVKGVAYPIRIAYYNGSGDGKLNVSFKDPSGTTHTDWKGYVWQYSNTCSTCTYT
In the case of B1, the “glycan array binding signal (z-score)” value [1] is reported as 0.301, the “glycan array binding signal (z-score)” value [2] is reported as 0.373 and the “glycan array binding signal (z-score)” value [3] is reported as -0.015. The “glycan array binding signal (z-score)” value [4] was 0.962, the “glycan array binding signal (z-score)” value [5] was 0.655 and the “glycan array binding signal (z-score)” value [6] was 0.505. The “glycan array binding signal (z-score)” value [7] was -1.08, the “glycan array binding signal (z-score)” value [8] was 1.53 and the “glycan array binding signal (z-score)” value [9] was 0.235. The “glycan array binding signal (z-score)” value [10] was -0.318, the “glycan array binding signal (z-score)” value [11] was 1.29 and the “glycan array binding signal (z-score)” value [12] was -1.26. The “glycan array binding signal (z-score)” value [13] was 0.762, the “glycan array binding signal (z-score)” value [14] was 1.16 and the “glycan array binding signal (z-score)” value [15] was 2.44. The “glycan array binding signal (z-score)” value [16] was 1.14, the “glycan array binding signal (z-score)” value [17] was 0.916 and the “glycan array binding signal (z-score)” value [18] was 0.714. The “glycan array binding signal (z-score)” value [19] was 0.259, the “glycan array binding signal (z-score)” value [20] was -0.999 and the “glycan array binding signal (z-score)” value [21] was -1.03. For the same binder, the “glycan array binding signal (z-score)” value [22] was -1.8, the “glycan array binding signal (z-score)” value [23] was -1.89 and the “glycan array binding signal (z-score)” value [24] was 2.36. For the same binder, the “glycan array binding signal (z-score)” value [25] was 0.674, the “glycan array binding signal (z-score)” value [26] was 0.906 and the “glycan array binding signal (z-score)” value [27] was 0.077. The “glycan array binding signal (z-score)” value [28] was -0.825, the “glycan array binding signal (z-score)” value [29] was -0.784 and the “glycan array binding signal (z-score)” value [30] was -0.259. For the same binder, the “glycan array binding signal (z-score)” value [31] was 0.626, the “glycan array binding signal (z-score)” value [32] was 1.09 and the “glycan array binding signal (z-score)” value [33] was 0.339. The “glycan array binding signal (z-score)” value [34] was 1.09, the “glycan array binding signal (z-score)” value [35] was 0.4 and the “glycan array binding signal (z-score)” value [36] was -0.278. For the same binder, the “glycan array binding signal (z-score)” value [37] was 3.12, the “glycan array binding signal (z-score)” value [38] was -0.463 and the “glycan array binding signal (z-score)” value [39] was -0.488. For the same binder, the “glycan array binding signal (z-score)” value [40] was 0.036, the “glycan array binding signal (z-score)” value [41] was 0.625 and the “glycan array binding signal (z-score)” value [42] was -0.507. The “glycan array binding signal (z-score)” value [43] was -1.68, the “glycan array binding signal (z-score)” value [44] was 0.697 and the “glycan array binding signal (z-score)” value [45] was 1.09. For the same binder, the “glycan array binding signal (z-score)” value [46] was 1.94, the “glycan array binding signal (z-score)” value [47] was -1.67 and the “glycan array binding signal (z-score)” value [48] was -0.715. The “glycan array binding signal (z-score)” value [49] was -1.21, the “glycan array binding signal (z-score)” value [50] was -1.68 and the “glycan array binding signal (z-score)” value [51] was 0.794. The “glycan array binding signal (z-score)” value [52] was 0.153, the “glycan array binding signal (z-score)” value [53] was 0.967 and the “glycan array binding signal (z-score)” value [54] was -0.583. The “glycan array binding signal (z-score)” value [55] was -1.23, the “glycan array binding signal (z-score)” value [56] was 0.151 and the “glycan array binding signal (z-score)” value [57] was -1.51. For the same binder, the “glycan array binding signal (z-score)” value [58] was -0.466, the “glycan array binding signal (z-score)” value [59] was -0.08 and the “glycan array binding signal (z-score)” value [60] was 0.472.
